## Percent effect of library compounds

Amino acid sequences for entries named in this document (tags omitted). Residues count along the entry.
UniProt P9WFT3, whole entry: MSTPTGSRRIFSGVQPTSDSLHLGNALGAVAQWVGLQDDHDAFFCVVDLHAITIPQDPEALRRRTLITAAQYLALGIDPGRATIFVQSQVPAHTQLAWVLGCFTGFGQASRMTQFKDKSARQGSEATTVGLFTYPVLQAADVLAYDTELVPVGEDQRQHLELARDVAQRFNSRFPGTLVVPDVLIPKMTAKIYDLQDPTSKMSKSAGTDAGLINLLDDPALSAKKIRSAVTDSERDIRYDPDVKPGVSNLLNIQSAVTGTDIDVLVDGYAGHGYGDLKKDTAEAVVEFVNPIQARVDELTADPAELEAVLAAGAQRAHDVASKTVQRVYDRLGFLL
UniProt Q8IDJ8, 1-583: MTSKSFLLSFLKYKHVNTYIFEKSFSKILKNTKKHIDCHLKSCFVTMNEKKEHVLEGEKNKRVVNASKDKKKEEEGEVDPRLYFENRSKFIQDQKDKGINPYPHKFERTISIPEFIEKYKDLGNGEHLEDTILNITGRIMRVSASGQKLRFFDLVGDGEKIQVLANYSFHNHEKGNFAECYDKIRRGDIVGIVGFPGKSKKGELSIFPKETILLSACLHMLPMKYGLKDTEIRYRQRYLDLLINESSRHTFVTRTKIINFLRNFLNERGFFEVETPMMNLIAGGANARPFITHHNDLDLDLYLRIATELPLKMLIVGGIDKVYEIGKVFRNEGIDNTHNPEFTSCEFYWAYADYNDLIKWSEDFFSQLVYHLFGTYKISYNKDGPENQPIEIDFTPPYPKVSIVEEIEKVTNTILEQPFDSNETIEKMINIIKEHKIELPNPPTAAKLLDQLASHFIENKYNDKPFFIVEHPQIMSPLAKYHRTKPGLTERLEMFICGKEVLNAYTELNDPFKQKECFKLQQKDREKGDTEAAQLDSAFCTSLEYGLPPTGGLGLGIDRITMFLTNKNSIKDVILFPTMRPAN
UniProt P9WPC5, whole entry: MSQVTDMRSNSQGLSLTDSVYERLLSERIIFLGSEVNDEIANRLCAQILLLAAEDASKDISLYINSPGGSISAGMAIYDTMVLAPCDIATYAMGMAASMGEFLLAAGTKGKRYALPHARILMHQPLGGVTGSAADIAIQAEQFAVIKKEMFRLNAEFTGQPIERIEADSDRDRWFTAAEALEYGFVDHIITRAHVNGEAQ
UniProt P9WPC3, whole entry partner: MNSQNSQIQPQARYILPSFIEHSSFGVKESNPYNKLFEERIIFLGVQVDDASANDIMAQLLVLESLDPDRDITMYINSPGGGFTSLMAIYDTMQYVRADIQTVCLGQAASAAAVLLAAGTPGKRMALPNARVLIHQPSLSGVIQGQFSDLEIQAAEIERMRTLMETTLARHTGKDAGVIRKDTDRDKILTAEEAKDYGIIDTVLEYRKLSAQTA

Measurements from “University of Dundee, Small-Polar-MMV Screening Library” (2021), ChEMBL document CHEMBL3988442.

MtTrpRS: 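Enzyme assay of tryptophanyl-tRNA synthetase; the read-out is not stated. Target: Tryptophan-tRNA ligase, Mycobacterium tuberculosis (UniProt P9WFT3). Compounds at 10 µM. Higher most likely means stronger inhibition; the record gives no direction and few retests gave an IC50. About 65,000 compounds were tested under these conditions; 0.098% (about 64) showed 50% or more at least once.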
PfKRS1: 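Lysine-tRNA ligase, Plasmodium falciparum 3D7 (UniProt Q8IDJ8). Enzyme assay of the cytosolic lysyl-tRNA synthetase in 384-well plates, read by luminescence. Compounds at 30 µM. Higher reads as stronger inhibition, judged from the few compounds that gave an IC50. Of about 69,000 compounds tested this way, about 49 (0.071%) reached 50% or more in at least one test.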
ClpP1P2: 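Protease assay of ClpP1P2, read by the AMC dye that it sets free. Target: ClpP1P2, Mycobacterium tuberculosis (UniProt P9WPC5 and UniProt P9WPC3). Concentration: 50 µM. Direction is inferred from only a few compounds that gave an IC50; most scored high, so higher reads as stronger inhibition. Most other retested compounds had strongly negative values. About 69,000 compounds were tested under these conditions; 0.015% (about 10) showed 50% or more at least once.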

The filed quantity is “Percent Effect” (%). The controls that fix the scale are not given in the record; negative values are as filed. The compounds are a random part of those screened. A dash means the value is not listed here; it may have been measured.

SMILES,MtTrpRS,PfKRS1,ClpP1P2
Cc1noc(C2CCC3(CCN(C(=O)c4ccnnc4)CC3)O2)n1 (configuration not stated),-8.621,0.1389,-5.705
Cn1c(CN2CCCC(Cn3cc(CCO)nn3)C2)cc2ccccc21 (configuration not stated),-0.486,6.588,-2.66
Cc1cc(C)c(N(CC(O)CNCc2ccco2)S(C)(=O)=O)c(C)c1 (configuration not stated),0.8223,-0.8994,-5.572
CCCn1nc(C)c2c(C(F)F)cc(=O)n(CC(=O)O)c21,0.7772,4.536,-0.3376
Cc1cccc(CN2C(=O)CC[C@@H]3[C@H]2CCN3Cc2ccc(C)s2)n1,-0.5286,7.686,9.03
Cc1cc(CN2C[C@H]3CCC[C@@]3(COCc3csc(C)n3)C2)no1,-5.41,3.057,10.51
O=S1(=O)CCC(c2nnc(-c3cnc4onc(C5CC5)c4c3)o2)C1 (configuration not stated),-1.456,3.197,-2.118
COc1cc(C(=O)N2CCCC(c3cc(C)[nH]n3)C2)cc(OC)c1C (configuration not stated),25,-3.042,-11.71
Cc1ccc(C)c(-n2cc(CN3CC[C@@H](O)C3)c(-c3ccccc3)n2)c1,-4.156,1.192,-4.293
COc1cccc2c1ccn2CCC(=O)Nc1c2c(nn1C)CSC2,-3.695,-2.176,7.76
O=C(NS(=O)(=O)c1cccc(F)c1)c1ccccc1F,14.74,1.684,-9.97
Cn1cc(N2CCCC(Nc3ccc4c(c3)CCCO4)C2=O)cn1 (configuration not stated),-2.974,2.085,-12.64
Cc1n[nH]c(C)c1CCNC(=O)Nc1ccc2c(c1)COC2,-0.3631,-0.5439,-2.365
CN(CCCNC(=O)Nc1ccc(C#N)cc1)CC(F)(F)F,0.8614,-1.053,17.44
Cc1cc(CN2CCN(C(=O)NCCc3csc(C)n3)CC2)on1,-4.302,0.7012,-0.818
Cc1cccc(Nc2c(C#N)c(=O)n(C)c(=O)n2C)c1,-3.782,9.6,10.42
CCNS(=O)(=O)C1CCN(C(=O)c2c(F)cc(F)cc2F)C1 (configuration not stated),1.125,-0.05954,-3.563
CC(C)CS(=O)(=O)N1C[C@H]2C[C@H](C(=O)N3CCOCC3)[C@@H](C1)O2,-,0.4922,-11.83
CC1(C)CNC(=O)c2nc(CCN3CCCCC3CO)[nH]c2C1 (configuration not stated),-1.505,-0.7069,-9.391
O=C(CN1C=Nc2ccccc2S1(=O)=O)NCc1ccccc1,-0.8839,0.8864,-22.52
CNc1ncc(CN(C)C(=O)c2cccc(-n3cnnc3)c2)cn1,0.7508,0.8382,-17.76
c1coc(-c2noc(CN3CCCC(Cn4cncn4)C3)n2)c1 (configuration not stated),-3.541,7.383,-2.272
O=C(Cc1ccsc1)N1CCn2cc(CN3CCCC3)nc2C1,1.398,0.1944,-4.695
CCN1CC(COC(=O)c2cc(C)nn2CC)CC1=O (configuration not stated),2.857,1.211,-6.523
COCC(=O)N1CCCC1c1ccc(C(=O)NCCN2CCCCC2)s1 (configuration not stated),5.156,2.95,-0.8292
Cn1ccnc1C(O)(CCNCc1ccc(Cl)o1)C(F)(F)F (configuration not stated),-4.216,2.421,1.117
COc1c(C2CCCN2C(=O)c2cccnc2N(C)C)c(C)nn1C (configuration not stated),-5.508,-0.6297,-16.12
CCn1nc(C)c2nc(C(C)C)nc(NCC(C)C)c21,0.7772,5.621,1.445
CS(=O)(=O)c1ccccc1-n1cc(NC(=O)CC(F)(F)F)cn1,-1.876,4.573,13.26
CCOc1ccccc1C(=O)NCc1nncn1C1CC1,5.419,-4.517,-6.338
Cc1ccc(-n2ncc(C(=O)NC3CC(C)(C)NC(C)(C)C3)c2N)cc1,-,2.348,13.61
CCC(CC)NC(=O)c1cccnc1-n1cccn1,-1.037,2.4,-3.075
CCc1cnc(NCCS(=O)(=O)CC(C)C)nc1,-2.477,-0.8396,10.6
O=C(c1cc(Cl)c2c(c1)OCO2)N1CCN(c2ncccn2)CC1,-1.743,-1.628,-6.455
CCCC(=O)N1CCCC1(C)c1nc(C)no1 (configuration not stated),-7.602,-0.1423,-14.45
Cc1nc(CNC(=O)c2cc(Cn3ccnc3C(C)C)[nH]n2)sc1C,2.157,8.101,-14.72
O=C1NCCN1CCNc1cc(-c2ccccc2)nc2ccnn12,-3.451,2.141,-48.68
CCN1CCN(c2ccc(CNC(=O)c3c(C)noc3C)cn2)CC1,2.111,2.572,9.338
CC(=O)N(C)CC(=O)Nc1cccc(N2CCN(CC3CC3)CC2)c1,-1.006,1.145,9.649
CN(C)C(=O)Cn1cc(C(=O)NCCc2cccc(Cl)c2Cl)nn1,-4.379,2.81,-3.189
CC(C)[C@@H]1CN(C(=O)NCCc2ccccc2)C[C@H]1NS(=O)(=O)N(C)C,4.128,-2.51,-10.13
CN1CCCC1c1cc2cccnc2n1Cc1ccc(F)cc1 (configuration not stated),-6.728,3.382,-17.38
O=C(NCCc1cc(N2CCOCC2)nc(NC2CC2)n1)C1CCCO1 (configuration not stated),16.12,1.627,-9.314
Cc1cnc(NC(=O)N2CCOCC2)s1,-1.385,0.4684,-1.485
O=C(C1CCCOC1)N1CCN(CC(F)(F)F)c2ccccc21 (configuration not stated),4.693,-1.376,-3.733
CS(=O)(=O)N1CCOCC12CCN(Cc1ccc(F)cc1)CC2,-,2.574,3.156
O=C1Nc2ccccc2C12CCN(Cc1nccs1)CC2,-4.651,2.276,16.88
CC(C)COCCC(=O)NS(=O)(=O)c1ccc(Cl)s1,-0.343,-4.283,11.14
Cn1nccc1C(=O)N1CCC(c2ncc(Cl)cc2S(C)(=O)=O)CC1,4.147,-0.5407,-11.2
c1ccc(Cc2nnc([C@H]3CCN(C4CCCCC4)C3)o2)cc1,-3.738,5.82,-6.092
COc1cccc(COC(C)C(=O)NC2CCN(CC(N)=O)CC2)c1 (configuration not stated),1.04,4.094,5.896
CN1CCCN(S(=O)(=O)c2cccc(C(=O)N3CCCCCC3)c2)CC1,-4.644,0.1439,3.625
CC(=O)Nc1ccc(CNCc2cccnc2N(C)C)cc1,-1.125,8.514,-6.711
Cc1nnc2n1CCN(CC(=O)Nc1cc(C(C)C)no1)C2,1.058,8.318,-0.2949
CC(C)CC(=O)N1CC[C@@H]2[C@H](CC1)N(S(C)(=O)=O)CCS2(=O)=O,-1.126,9.261,8.783
Cc1ccc(-n2nnc(CC(=O)N3CCOCC3)c2C)cc1,-0.08285,6.807,-2.18
CC(C)c1nccn1C(C)C(=O)N1CCN(S(C)(=O)=O)CC1 (configuration not stated),3.444,1.231,7.237
Cc1cccc(-c2nnn3c2COC(CNC(=O)N2CCCC2)C3)c1 (configuration not stated),-7.277,0.9741,4.952
Cc1cc(C)cc(C(=O)NCCCNc2ncccn2)c1,-3.762,-0.8329,-16.13
O=S1(=O)c2ccccc2C(O)CN1CCO (configuration not stated),-,5.34,2.605
CN(c1ccc(OCc2cnc(Cl)s2)cc1)S(C)(=O)=O,-5.954,-0.4924,0.9539
c1cncc(-c2ccc3c(c2)C2(CCNCC2)CC3)c1,16.5,-0.1503,18.75
CC(C)(C)NC(=O)Cn1c(=O)n(Cc2ccco2)c2ncccc21,-,3.746,2.076
CCC(C)(NCC(N)=O)c1nccs1 (configuration not stated),2.999,1.703,4.126
CC(C(=O)NCc1ccnc(N2CCN(C)CC2)c1)n1cccn1 (configuration not stated),1.572,5.591,7.097
O=C(Cc1cccc(F)c1)NCCNCc1ccco1,-3.757,2.052,-2.543
O=C(Nc1cccnc1)C1Cc2nc(-c3ccsc3)sc2N1CC1CC1 (configuration not stated),14.27,3.09,-26.53
CN(CC(=O)Nc1cc(C(C)(C)C)n[nH]1)S(C)(=O)=O,-2.786,-3.707,4.079